Source: patent US8747901B2 (Reata Pharmaceuticals, Inc., priority 2009, dated 2014)
At least one structure is not confirmed: it was looked up by name or label, or the drawing left a doubt.

Assay type: in vivo, human
Description: The synthetic triterpenoid bardoxolone methyl, also known as CDDO-Me and as “RTA 402,” has shown potent anti-inflammatory and anti-tumor properties in preclinical studies and in human clinical trials. […] In these studies bardoxolone methyl was administered orally in a crystalline form (“Form A”), once daily, at a variety of doses.

Structure (SMILES): COC(=O)[C@]12CCC(C)(C)C[C@H]1[C@H]1C(=O)C=C3[C@@]4(C)C=C(C#N)C(=O)C(C)(C)[C@@H]4CC[C@@]3(C)[C@]1(C)CC2 [bardoxolone methyl]
- anticancer activity (patients with advanced cancer): significant anticancer activity
- measures of kidney function, insulin resistance, glycemic control, and systemic cardiovascular disease (patients with chronic kidney disease as a result of Type 2 diabetes): ability to improve measures of kidney function, insulin resistance, glycemic control, and systemic cardiovascular disease
